Measurements as given in PubChem BioAssay AID504467 (National Center for Advancing Translational Sciences (NCATS), 2011).
In all, about 330,000 compounds went through this assay and about 7,700 (2.3%) were called active. The shares of active, inactive and inconclusive entries below differ from those in the screen. The call rests on the fitted dose curve; in most records, active means well fitted inhibition curve with a large enough effect; inconclusive means small, poorly fitted or top-dose-only effect, or effect the other way; inactive means flat fitted curve, though single readings scatter. Where the call is inconclusive, the potency comes from a doubtful curve fit.

Assay: qHTS screen for small molecules that inhibit ELG1-dependent DNA repair in human embryonic kidney (HEK293T) cells expressing luciferase-tagged ELG1; further: nearly all actives have a fitted effect of over 55% in size
Details: HEK293T ELG1-luciferase reporter, luminescence, 16 h, DNA damage induced by 5-fluorouridine; series mostly up to 46.1 µM
Procedure, shortened: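 DMSO vehicle served as the neutral condition. Each well held 2,000 cells given 5-fluorouridine plus compound; after 16 hr at 37 °C/5% CO2, ONE-Glo was added and luciferase measured 30 min later.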
Potency means the concentration at half of the fitted maximal effect.

Compound	Potency
COC(=O)c1c(C)[nH]c(O)c1C=Nc1ccc(Oc2ccccc2)cc1	inconclusive: 0.73 µM [inhibitor, full curve]
CS(=O)(=O)N1N=C(c2cccs2)CC1c1ccco1 (stereo not given)	inconclusive: 23.1 µM [activator, partial curve, poor fit]
O=C(/C=C/c1ccc([N+](=O)[O-])s1)N1CCCCC1	inconclusive: 3.66 µM [activator, single point]
COc1ccc(-c2cc(=O)oc3c(C)c(OC(C)C(=O)Nc4ccc(CN5CCOCC5)cc4)ccc23)cc1 (stereo not given)	inconclusive: 18.3 µM [inhibitor, partial curve, poor fit]
Cc1ccc2cc(CCNC(=O)c3ccc4c(c3)OCO4)c(=O)[nH]c2c1	inconclusive: 20.6 µM [inhibitor, single point]
CCCCCC(=O)Nc1nc(C)c(-c2csc(Nc3ccc(Cl)cc3)n2)s1	inconclusive: 29.1 µM [inhibitor, partial curve, poor fit]
COc1cccc(/C=C(\CC(=O)O)c2nc3ccccc3s2)c1	inactive
CCOCCn1ccc2c(OCC(=O)Nc3ccc(OC)c(OC)c3)cccc2c1=O	inconclusive: 13 µM [inhibitor, partial curve, poor fit]
COC(=O)c1c(NC(=O)CSc2nncs2)sc2c1CCCCC2	inconclusive: 29.1 µM [inhibitor, single point]
COc1ccc(N2CCN(C(=O)CSc3nnc(NC(=O)C4CC4)s3)CC2)cc1	inconclusive: 29.1 µM [inhibitor, partial curve, poor fit]
Cc1ccccc1Nc1nc(N)c2ccccc2n1	inconclusive: 2.06 µM [activator, full curve]
O=C(CCC(=O)c1cccs1)NCC(c1ccc(F)cc1)N1CCOCC1 (stereo not given)	inactive
O=S(=O)(c1ccc(Cl)cc1)c1nc(-c2ccco2)oc1N1CCOCC1	inactive
O=C(NCC1CCCO1)c1ccccc1-c1nc(-c2ccccc2F)no1 (stereo not given)	inactive
CCn1nc(C)c(Br)c1-c1nc(-c2cccc(C)c2)no1	inactive
Cn1nc(-c2ccc(OCC(N)=O)cc2)c2ccccc2c1=O	inconclusive: 20.6 µM [activator, partial curve]
COc1ccc(NC(=O)C(NC(=O)c2ccc(C)cc2)c2ccccc2)cc1 (stereo not given)	inactive
Cc1ccc(CNC(=O)c2ccc3nc4[nH]c5ccccc5c4nc3c2)cc1	inactive
CC[C@]1(C(=O)OC)[C@H]2C(=O)N(C)C(=O)[C@H]2[C@H]2CN=C(SCC3CC3)N21	inconclusive: 18.3 µM [activator, single point]
COc1cc(C2CC(=O)Nc3n[nH]c(-c4ccccc4)c32)cc(OC)c1OC (stereo not given)	inconclusive: 29.1 µM [activator, single point]
CCOC(=O)N1CCC(Nc2c(-c3ccccc3)c(=O)c2=O)CC1	inactive
NS(=O)(=O)c1ccc(CCNC(=O)CSc2nc3ccccc3c(=O)n2CCC(=O)N2CCCCC2)cc1	inactive
COCCOC(=O)c1c(N)n(CCCN2CCOCC2)c2nc3ccccc3nc12	inactive

Part of the list above, in markdown.

| Compound | Potency |
| --- | --- |
| CCOC(=O)N1CCC(Nc2c(-c3ccccc3)c(=O)c2=O)CC1 | inactive |
| NS(=O)(=O)c1ccc(CCNC(=O)CSc2nc3ccccc3c(=O)n2CCC(=O)N2CCCCC2)cc1 | inactive |

More compounds follow:

Compound	Potency
Cc1cccc(C)c1NC(=O)CSc1nnc(CCCCCNC(=O)OC(C)(C)C)o1	inconclusive: 20.6 µM [inhibitor, single point]
Cc1cccc(OCCSc2nc3c([nH]2)c(=N)ncn3Cc2ccccc2)c1	inconclusive: 29.1 µM [inhibitor, partial curve, poor fit]
CN(Cc1ccccc1F)C(=O)c1ccc(Oc2ccccc2)cc1	inactive
C/C(=C\C(=O)c1ccccc1)NCc1ccc(F)cc1	inconclusive: 29.1 µM [activator, single point]
O=S(=O)(NCc1ccc(F)cc1)c1ccc(-n2cccn2)cc1	inactive
CC(C)C[C@@H](C(=O)NCc1ccco1)N1C(=O)N2CCc3c([nH]c4ccccc34)[C@@]2(C)C1=O	inactive
O=C(NCCc1ccccn1)c1ccc(OC(F)F)cc1	inconclusive: 7.3 µM [activator, partial curve, poor fit]
C(=N\Nc1nc(Nc2ccccc2)nc(N2CCOCC2)n1)/c1c[nH]c2ccccc12	active: 16.4 µM
CC(Sc1nc2ccccc2c(=O)n1CC1CCCO1)C(=O)Nc1ccc(S(N)(=O)=O)cc1 (stereo not given)	inconclusive: 35.5 µM [inhibitor, single point]
CCOC(=O)c1c(NC(=O)C(C)N2CCN(S(=O)(=O)c3cccs3)CC2)sc2c1CCC(C)C2 (stereo not given)	inconclusive: 16.4 µM [inhibitor, single point]
O=C(CSc1nnnn1-c1ccccc1)CC(=O)Nc1ccc(Cl)cc1	active: 16.4 µM
Cc1c(C)c2ccc(OCC(=O)N3CCN(C(=O)C4COc5ccccc5O4)CC3)cc2oc1=O (stereo not given)	active: 1.83 µM
CC(=O)Nc1ccccc1OC(C)C(=O)NC(C)c1ccc(F)cc1 (stereo not given)	inactive
CCC(CC)C(=O)N1N=C(c2ccc(NS(C)(=O)=O)cc2)CC1c1ccc(C)cc1 (stereo not given)	inconclusive: 23.1 µM [inhibitor, single point]
CCCCCCc1nnc(NC(=O)c2ccco2)s1	inconclusive: 20.6 µM [activator, partial curve]
Cc1cc(C)nc(OC(C(=O)O)C(OCc2ccccc2)(c2ccccc2)c2ccccc2)n1 (stereo not given)	inactive
C/C=C/C=C\C(=O)Nc1cccc(C2=NOC3(C2)C[C@H](C(N)=O)N(C(=O)/C=C/C)C3)c1 (stereo not given in full)	inconclusive: 16.4 µM [activator, single point]
N/C(=N\OC(=O)c1ccccc1Cl)c1ccncc1	active: 23.1 µM
COc1ccc(-c2nnc(CSc3nc4ccccc4c(=O)n3C)o2)cc1OC	inconclusive: 23.1 µM [inhibitor, single point]
Cc1ccccc1SCC(=O)N/N=C/c1ccc(F)cc1	inactive
COc1cc2ccccc2cc1C(=O)N1CC(C)CC(C)C1 (stereo not given)	inconclusive: 1.46 µM [activator, partial curve, poor fit]
O=[N+]([O-])c1nn(-c2ccc3c(c2)OCCO3)n(O)c1=NCc1ccc(F)cc1Cl	inconclusive: 4.11 µM [activator, full curve]
